Data taken from ChEMBL document CHEMBL3988442, “University of Dundee, Small-Polar-MMV Screening Library” (2021).

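Whole-parasite assay of Trypanosoma brucei over 72 hours; the read-out is not stated. Tested at 30 µM. Direction is inferred from retests: higher values go with stronger inhibition. Values scatter widely below zero; nearly all retest evidence comes from the higher of the two concentrations used. About 64,000 compounds were tested under these conditions; 1.5% (about 940) showed 50% or more at least once.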

Results are given as percent effect. The record does not define 0% and 100%; most values in the screen are far below 50% and negative numbers occur (in some assays of this library far below -100). The compounds are a random part of those screened.

| Compound | Percent Effect |
|---|---|
| `Cn1cc(NC(=O)Cc2ccccc2Br)cc1C(N)=O` | -45.77 |
| `CNC(=O)[C@@H]1C[C@@H](N)CN1Cc1cc2cc(C)cc(C)c2[nH]c1=O` | -27.47 |
| `CNS(=O)(=O)CC1CCCN1c1ccc(Br)cn1` (configuration not stated) | -2.678 |
| `Cn1cnc(S(=O)(=O)N2CCOCC2)c1Cl` | -27.91 |
| `N[C@H]1CN(S(=O)(=O)Cc2ccccc2)C[C@@H]1C1CC1` | 4.501 |
| `CC(=O)N1CCC2(CC1)C(=O)N(c1ccc(C)nc1)CCN2CC(C)C` | -62.12 |
| `COc1ccc(CC(=O)NCCCc2nnc3nc(C)cc(C)n23)cc1` | -47.24 |
| `Cc1cc(C)n(CC2CCCN2C(=O)c2cccc3[nH]ncc23)n1` (configuration not stated) | 22.59 |
| `C[C@@H]1CN(Cc2nc(C(N)=O)no2)CC[C@@]1(O)C1CC1` | -44.18 |
| `Cc1nn(C(C)C)c(C)c1NC(=O)c1ccc(F)cc1` | -42.01 |
| `O=C(c1cc[nH]n1)N1CCCC1c1cc(Nc2ccccn2)n[nH]1` (configuration not stated) | -41.86 |
| `CCn1ncc2c1CN(C(=O)c1cscn1)CC2COC.O=C(O)C(F)(F)F` (configuration not stated) | 16.6 |
| `COCCOc1ccc(NC(=O)N2CCCC2c2cccs2)cn1` (configuration not stated) | 25.66 |
| `O=C(O)C(F)(F)F.[H][C@@]12OCCN(c3ncc(F)cn3)[C@@]1([H])CC[C@H]2OCC1CCOCC1` | -99.42 |
| `CNC(=O)CS(=O)(=O)C1CCN(S(=O)(=O)C2CC2)CC1` | -37.98 |
| `NC(=O)C1CCCN1Cc1cccc(NC(=O)c2ccsc2)c1` (configuration not stated) | 12.83 |
| `CCCS(=O)(=O)C(C)C(=O)Nc1ccc2oc(C3CC3)nc2c1` (configuration not stated) | -39.52 |
| `O=C(O)C(F)(F)F.[H][C@@]12CCN(Cc3cccs3)C[C@]1(C(=O)N1CCCO1)CCO2` | -9.447 |
| `O=C(c1cnco1)N1CCCC(Cc2nccs2)C1` (configuration not stated) | 10.74 |
| `Cc1cc(=O)c(C(=O)N2CCN(C)c3ccccc3C2)c[nH]1` | -45.75 |
| `Cc1ccsc1CN(C)C(=O)c1ccc(N2CCOCC2)c(F)c1` | -14.94 |
| `CS(=O)(=O)CCNC(=O)N(Cc1ccoc1)C1CCCCC1` | -12.5 |
| `COc1cc(OC)cc(-c2noc(CC(N)c3ccccc3)n2)c1` (configuration not stated) | -1.01 |
| `Cc1ccc(CN2CCn3c(CN(C)C(C)C)cnc3C2)s1.O=C(O)C(F)(F)F.O=C(O)C(F)(F)F` | 4.815 |
| `Cc1ccc(C(=O)NCCS(=O)(=O)Cc2ccccc2)c(=O)[nH]1` | -30.84 |
| `Cc1ccc(S(=O)(=O)N2CCN(C)c3ccncc32)cc1F` | -14.14 |
| `Cc1cnn(C2CCCN(C(=O)c3ccc(N(C)C)nn3)C2)c1` (configuration not stated) | 11.02 |
| `COc1nn(C)cc1C(=O)N1CCC(c2nnc(-c3ccsc3)o2)CC1` | -14.89 |
| `CS(=O)(=O)N1CCC2(CC1)COC(COc1ccccn1)C2.O=C(O)C(F)(F)F` (configuration not stated) | -33.87 |
| `CCCC(Nc1c(C#N)c(=O)n(C)c(=O)n1C)c1ccc(F)cc1F` (configuration not stated) | 4.815 |
| `O=C(O)C(F)(F)F.[H][C@@]12CCN(CC(=O)NC)C[C@]1([H])CN(C(=O)c1ccccc1F)C2` | -40.98 |
| `CNC(=O)C1CCN(c2ncc3c(n2)CCN3c2ccccc2)C1` (configuration not stated) | -44.13 |
| `CN(C)Cc1cnc(C2CN(C(=O)c3ccccc3Cl)CCO2)[nH]1` (configuration not stated) | 0.02728 |
| `CCc1nc(C2CCCN2C(=O)c2csc(NC(C)=O)n2)no1` (configuration not stated) | -10.34 |
| `CN1Cc2nc[nH]c2C[C@H]1C(=O)NC1CCCCC1` | -22.5 |
| `CN(C)c1ccnc(N2CCC(NCCOc3ccccc3)CC2)n1` | -56.57 |
| `Cc1ccc(CN(C)C(=O)CN2CCCCC2Cn2cncn2)cc1` (configuration not stated) | -24.12 |
| `CS(=O)(=O)N1CCN(c2cc(N3CCCC3CO)ncn2)CC1` (configuration not stated) | 3.859 |
| `O=C(CN1CCN(CCO)CC1)NCc1ccc(Cl)s1` | -30.94 |
| `NC(=O)C1CCN(CC(=O)NCCc2c(F)cccc2F)CC1` | -9.665 |
| `CC(C(=O)N1CCOCC1)N1CCc2cncnc2C1` (configuration not stated) | -12.45 |
| `CC(=O)N1CC(=O)N(c2cnn(C)c2)CC12CCN(Cc1nccs1)C2` (configuration not stated) | -6.403 |
| `Cc1nccc(-c2cccc(NCC(=O)NCC(=O)N3CCCC3)c2)n1` | 20.23 |
| `CN1C(=O)CC(c2cnn(C)c2)C12CCN(C(=O)c1ccncc1)CC2.O=C(O)C(F)(F)F` (configuration not stated) | 31.04 |
| `OC1(CNc2ccc(-c3nc(C4CC4)no3)cn2)CCCCC1` | -13.21 |
| `CC(C#N)CN(C)C(=O)CCNC(=O)OC(C)(C)C` (configuration not stated) | -40.87 |
| `O=C(CC1CN(Cc2ccccc2)CCO1)NCCN1CCOCC1` (configuration not stated) | -75.56 |
| `Cc1c(NCc2ccccc2C#N)cccc1-n1cnnn1` | -28.79 |
| `O=C(c1cc(Cl)c[nH]1)N1CCCC(c2cc(C(F)(F)F)[nH]n2)C1` (configuration not stated) | 80.28 |
| `Nc1cncc(C(=O)N2Cc3ccccc3OC3(CCOCC3)C2)c1` | 0.1303 |
| `CC(C)C(C)(C#N)NC(=O)Cn1cc(Cl)cn1` (configuration not stated) | 3.038 |
| `COc1ccccc1CN(Cc1nc(Cc2ccccc2)no1)C1CC1` | -51.38 |
| `CC(C)N1CCCC(CN(C)c2ccc(Cn3ccnc3)cn2)C1` (configuration not stated) | -165.4 |
| `CC(C)c1cc(NC2CCCN(C(=O)c3cccs3)C2)ncn1` (configuration not stated) | -13.47 |
| `Cc1cc(C)c(CNC(=O)NCc2cc(F)cc(F)c2)c(=O)[nH]1` | 19.24 |
| `O=C(Nc1ccccc1Cn1cncn1)C1CCN(C2CCCCC2)C1` (configuration not stated) | -25.64 |
| `O=c1cc(Cn2cncn2)nc2n1CCCN(Cc1ccco1)C2` | -35.3 |
| `CCCc1cc(NC2CCc3ncnn3C2)n2ncnc2n1` (configuration not stated) | 104.4 |
| `CC(C)C(=O)NCC(=O)NCC1CCN(c2cnn(C)c(=O)c2)CC1` | -38.35 |
| `COc1ccc(OC2CCN(C(=O)c3cnc(C)s3)CC2)cc1` | -7.711 |
| `Cc1nc(C2CCCN2Cc2nccn2CC(F)(F)F)no1` (configuration not stated) | -9.093 |
| `Cc1nc(CN(CCS(C)(=O)=O)C(C)(C)C)no1` | -10.8 |
| `CCOCC1CN(Cc2cccc(C#N)c2)Cc2nccn2C1.O=C(O)C(F)(F)F` (configuration not stated) | -39.9 |
| `CC(=O)N1CCN(c2nc3c(cnn3C(C)(C)C)c(=O)[nH]2)CC1` | -8.602 |
| `Cc1cc(C)n(C2CN(c3nc(-c4ccncc4)nc4c3CCC4)C2)n1` | -51.59 |
| `CNc1cc(CNC(=O)c2ccccc2OC)nc(-c2ccncc2)n1` | 24.26 |
| `CCc1nc(N2CCOCC2)ncc1C(=O)NC(c1cccs1)C(C)C` (configuration not stated) | 27.51 |
| `CC(C)CCc1nc(CNCC2CCCN2c2cccnn2)cs1` (configuration not stated) | 99.06 |
| `Cc1cc(N2CCN(Cc3ccsc3)C(CCO)C2)nc(N)n1` (configuration not stated) | -23.9 |
| `Cc1ccn(CC(=O)NCCCOc2ccccc2F)c(=O)c1` | -17.5 |
| `Cn1cc(C2CCCN2C(=O)CS(=O)(=O)C2CCCC2)cn1` (configuration not stated) | 8.708 |
| `CC(=O)Nc1ccc(C(=O)N(C)Cc2ccc(F)cc2F)s1` | -12.21 |
| `Cc1noc(C)c1C(=O)NCc1ccc(N2CCOC(C)C2)nc1` (configuration not stated) | -4.503 |
| `c1ccc(CN2CCC(c3nccnc3-n3ccnc3)CC2)cc1` | 1.693 |
| `CCNc1cc2c(nn1)CCN(C(=O)c1cc3ccccc3[nH]c1=O)C2` | -5.2 |
| `CC(=O)N1CCCCCC1C1CCN(Cc2nc(C(C)C)no2)CC1.Cl` (configuration not stated) | -24.57 |
| `O=C(O)C(F)(F)F.O=C(O)C(F)(F)F.[H][C@@]12CN(Cc3cccc(F)c3)C[C@]1([H])OCCN2Cc1c(C)noc1C` | -65.35 |
| `CCC(C)C(=O)NCCCn1nc(C)cc1C` (configuration not stated) | -9.809 |
| `Cn1cc(Cl)c(C(=O)N2CCc3nc4sccc4c(=O)n3CC2)n1` | -1.353 |
| `N#Cc1ccccc1CN1CCCCC1Cn1cncn1` (configuration not stated) | -35.76 |
| `O=C(c1nc2c(s1)CCCN2C(=O)C1CC1)N1CCCC1` | -22.04 |
| `CCOc1ccccc1CC(=O)N1CCCC(c2ncc[nH]2)C1` (configuration not stated) | -7.356 |

Once more, the final 8:

{"compound": "CCNc1cc2c(nn1)CCN(C(=O)c1cc3ccccc3[nH]c1=O)C2", "Percent Effect": -5.2}
{"compound": "CC(=O)N1CCCCCC1C1CCN(Cc2nc(C(C)C)no2)CC1.Cl", "stereo": "configuration not stated", "Percent Effect": -24.57}
{"compound": "O=C(O)C(F)(F)F.O=C(O)C(F)(F)F.[H][C@@]12CN(Cc3cccc(F)c3)C[C@]1([H])OCCN2Cc1c(C)noc1C", "Percent Effect": -65.35}
{"compound": "CCC(C)C(=O)NCCCn1nc(C)cc1C", "stereo": "configuration not stated", "Percent Effect": -9.809}
{"compound": "Cn1cc(Cl)c(C(=O)N2CCc3nc4sccc4c(=O)n3CC2)n1", "Percent Effect": -1.353}
{"compound": "N#Cc1ccccc1CN1CCCCC1Cn1cncn1", "stereo": "configuration not stated", "Percent Effect": -35.76}
{"compound": "O=C(c1nc2c(s1)CCCN2C(=O)C1CC1)N1CCCC1", "Percent Effect": -22.04}
{"compound": "CCOc1ccccc1CC(=O)N1CCCC(c2ncc[nH]2)C1", "stereo": "configuration not stated", "Percent Effect": -7.356}